A short description of the assay: IkB Signaling. The conditions noted are these: ABC-DLBCL IkBa-CBG/CBR dual luciferase ratio (green luciferase fused to IkBa over red control in OCI-Ly3 lymphoma cells), 4 h. Summed up: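 Luminescence ratio of IκBα-fused green versus native red beetle luciferase in OCI-Ly3 cells, 4 h post-doxycycline with compound; red signal alone, scaled from basal (0%) to zero light (-100%), flagged nonspecific or cytotoxic effects.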
Setting [1] is: measured here: control luc red channel unless noted.

The other results are listed elsewhere or left out. The main result of the screen is listed elsewhere. These columns were measured beside it and carry no call. Compounds called inactive in the main read-out are mostly missing here. Words in brackets tell the shape of the fitted curve; partial curves, single points and poor fits give uncertain potencies.

`COc1ccc(-c2nn3c(-c4ccc(OC)cc4)nnc3c3ccccc23)cc1`: the AC50 under setting [1] is 2.51 µM [rising, partial curve].
On to `Cc1ccc2c(c1)cc(C(=O)Nc1ccccc1C)n2C`, for which, under setting [1], the AC50 was 1 µM [falling, full curve].
Regarding `c1ccc(OCc2nc3ccccc3[nH]2)cc1`, under setting [1], the concentration at half-maximal activity (AC50) is 20 µM [falling, single point].
Still for that read-out and setting: to `COc1cc(OC)cc(-c2nc3n(n2)C(c2ccccc2F)C(C(=O)Nc2cccnc2)=C(C)N3)c1` (stereo not given) belongs 10 µM [falling, partial curve]; to `CCc1ccc(C2C(C(=O)Nc3ccccc3)=C(C)Nc3c(C(=O)Nc4ccc(C)cc4)cnn32)cc1` (stereo not given), 3.98 µM [falling, full curve]; to `CCOC(=O)Cn1c(=O)oc2cc(S(=O)(=O)N3CCN(c4ccc(Cl)cc4)CC3)ccc21`, 7.94 µM [falling, partial curve].
For `CCN(CC)c1ccc2c(Cl)c(Br)c(=O)oc2c1`, the AC50 is, setting by setting: (measured here: IkB-luc green channel) 15.8 µM [falling, partial curve]; (measured here: control luc red channel) 3.16 µM [falling, full curve].
For the molecule `Cc1cc(C)cc(NC(=O)C2CCCN(c3nnc(C)c4c(C)n(-c5ccccc5)nc34)C2)c1` (stereo not given), the half-maximal activity concentration (AC50) under setting [1] is 2.51 µM [falling, full curve].
In the case of `CCOC(=O)C1CCN(C(c2ccccc2)c2c(O)cc(C)n(Cc3ccco3)c2=O)CC1` (stereo not given), the AC50 under setting [1] was 7.94 µM [falling, partial curve].
In the case of `O=C(Nc1ccc2c(c1)CCC2)C1CCN(c2c3c(nc4ncnn24)CCC3)CC1`, under setting [1], the concentration at half-maximal activity (AC50) is 25.1 µM [falling, partial curve].
Same read-out and setting: to `Cc1ccc(-n2c(CCC(=O)O)ccc2-c2cccs2)cc1C` belongs 12.6 µM [falling, partial curve].
Same read-out and setting: to `O=C(CSc1nnc(-c2cccc(F)c2)c(-c2cccc(F)c2)n1)NC1CCCCC1` belongs 7.94 µM [falling, partial curve].
Still for that read-out and setting: to `O=C(Cn1ncc2c(=O)oc3ccccc3c21)N1CCN(c2ccc(Cl)cc2)CC1` belongs 25.1 µM [falling, partial curve].
Regarding `COc1cc(Cl)c(C)cc1NC(=O)c1cnn(-c2ccc(F)cc2F)c1C1CCN(C(=O)OC(C)(C)C)CC1`, the concentration at half-maximal activity (AC50) under setting [1] was 0.0316 µM [falling, full curve, poor fit].
Consider `CCOC(=O)c1c(NC(=O)COc2ccccc2Br)sc2c1CCCCC2`, for which, under setting [1], the concentration at half-maximal activity (AC50) is 12.6 µM [falling, partial curve].
Still for that read-out and setting: then `CC(C)(C)c1ccc(C(=O)N(Cc2ccc(F)cc2)Cc2ccco2)cc1`, with 20 µM [falling, partial curve, poor fit]; and `Cc1ccc(-c2nnc(Nc3ccccc3)c3ccccc23)cc1S(=O)(=O)N1CCN(C)CC1`, with 15.8 µM [falling, partial curve].
Still for that read-out and setting: to `CCCS(=O)(=O)c1c(S(=O)(=O)CCC)c2c(N)cccn2c1C(=O)c1ccc(F)cc1` belongs 20 µM [falling, partial curve].
Still for that read-out and setting: to `Cc1ccc(CNC(=O)Cc2ccc(NC(=O)N3CCSc4ncccc43)cc2)cc1` belongs 25.1 µM [falling, single point]; to `CC(C)(C)NC(=O)N1CCC(C(=O)O)CC1`, 5.01 µM [falling, single point]; to `CCCNC(=O)c1ccc(Cn2c(=O)c3cccn3c3cccnc32)cc1`, 1 µM [rising, full curve, poor fit].
`Cc1cc2cc(CN(Cc3ccco3)C(=O)C3CCCCC3)c(=O)[nH]c2cc1C`: the AC50 under setting [1] was 1.26 µM [falling, partial curve].
Still for that read-out and setting: to `COCCCNC(=O)CCCn1c(=O)c2cccn2c2ccccc21` belongs 12.6 µM [falling, partial curve]; to `COc1ccccc1CNC(=O)CCC1N=C2c3ccccc3N=C(SCc3ccc(Cl)cc3)N2C1=O` (stereo not given), 39.8 µM [falling, single point]; to `O=C1CCCc2cc(S(=O)(=O)NCC3CCC(C(=O)NCc4ccc(F)cc4)CC3)ccc2N1` (stereo not given), 39.8 µM [falling, single point].
The same measure, in the same setting: then `Cc1ccc(N2CCN(S(=O)(=O)c3ccc(Cl)c4ccccc34)CC2)c(C)c1`, with 20 µM [falling, partial curve]; and `O=C(Nc1cccc(C(F)(F)F)c1)c1cccc(C(=O)Nc2cccc(C(F)(F)F)c2)c1`, with 15.8 µM [rising, partial curve]; and `CCOC(=O)c1c(C)sc(-c2c(-c3cccc(Cl)c3)[nH]c3c2c(=O)n(C)c(=O)n3C)c1O`, with 1 µM [falling, full curve, poor fit].
Same read-out and setting: to `CC(=O)Nc1ccc(NC(=O)C2CCN(c3cnccn3)CC2)cc1` belongs 39.8 µM [falling, single point].
Take `COc1ccc(CCN2C(=O)c3[nH]nc(-c4ccccc4O)c3C2c2ccccc2)cc1` (stereo not given): under setting [1], the AC50 was 15.8 µM [falling, partial curve].
The same measure, in the same setting: then `CCN(CCCNC(=O)c1ccc(Sc2ccc(Cl)cc2)c(NC(C)=O)c1)c1ccccc1`, with 39.8 µM [falling, partial curve]; and `CCn1cc2nc(SCc3ccc(F)cc3)n(CCc3ccccc3)c(=O)c2n1`, with 39.8 µM [falling, single point].
`CCn1c(SCC(=O)c2cc(OC)ccc2OC)nnc1C(C)C`: the half-maximal activity concentration (AC50) under setting [1] is 31.6 µM [rising, partial curve] [measured here: IkB-luc green channel].
Still for that read-out and setting: to `CCn1c(=O)cc(OCC(=O)Nc2cc(C)ccn2)c2ccccc21` belongs 7.94 µM [falling, partial curve]; to `COc1ccc(OC)c(NC(=O)C2C3CCC(O3)C2C(=O)O)c1` (stereo not given), 25.1 µM [rising, partial curve] [measured here: IkB-luc green channel]; to `O=S(=O)(c1ccccc1)c1nc(-c2cccc(Cl)c2)oc1N1CCOCC1`, 25.1 µM [falling, single point].
Still for that read-out and setting: then `COC(=O)c1ccc(NC(=O)CSc2nc(=O)[nH]c3c2CCCC3)cc1`, with 3.16 µM [falling, single point].
The same measure, in the same setting: to `Cc1noc(C)c1C(=O)OCC(=O)Nc1ccccc1C(=O)NC(C)c1ccccc1` (stereo not given) belongs 31.6 µM [falling, single point]; to `CN(C)c1ccc(C(CNC(=O)c2ccccc2)N2CCc3ccccc32)cc1` (stereo not given), 10 µM [falling, partial curve].

As a reminder, the AC50 is the concentration at which the activity in the assay is half-maximal.

The values above are taken from PubChem BioAssay AID445 (National Center for Advancing Translational Sciences (NCATS), 2006).
